These results are taken from article PMC12431657, “Discovery and mechanistic insights of dibenzoylmethane as a broad spectrum inhibitor of coronavirus” (PLOS Pathogens, 2025).

Structures can show the parent of a compound that is named as a salt. Out of some 3,300 compounds screened, about 60 (2%) showed an effect of 50% or more. The list shows a part of the results. Peptide text beside a SMILES is read from it.

The subject of this test is HCoV-OC43. Further details: species or system RD; HTS, protection from HCoV-OC43 induced cell death, luminescent cell viability (CellCounting-Lite 2.0), inhibition rate. To be noted: 24 h post infection, 1 h compound pre-incubation; 10 µM; inhibitor.
For the molecule `CCOC(=O)CC(C)O` (stereo not drawn) [Ethyl 3-hydroxybutyrate], the “OC43 Inhibition rate” value is given as 0.8%.

For the molecule `CC(=O)CC(=O)CCC(=O)O` [4,6-Dioxoheptanoic acid], the “OC43 Inhibition rate” value is -0.3%.

Consider `Oc1cc(O)c2cc(O)c(-c3cc(O)c(O)c(O)c3)[o+]c2c1` [Delphinidin (chloride)], for which the “OC43 Inhibition rate” value was -1.7%.

Turning to `C[C@@H]1CC[C@]2(C(=O)O[C@@H]3O[C@H](CO)[C@@H](O)[C@H](O)[C@H]3O)CC[C@]3(C)C(=CC[C@@H]4[C@@]5(C)CC[C@H](O)[C@](C)(C(=O)O)[C@@H]5CC[C@]43C)[C@@H]2[C@]1(C)O` [Ilexsaponin A], the “OC43 Inhibition rate” value is recorded as -0.6%.

`OC[C@H]1O[C@@H]2O[C@H]3[C@H](O)[C@@H](O)[C@@H](O[C@H]4[C@H](O)[C@@H](O)[C@@H](O[C@H]5[C@H](O)[C@@H](O)[C@@H](O[C@H]6[C@H](O)[C@@H](O)[C@@H](O[C@H]7[C@H](O)[C@@H](O)[C@@H](O[C@H]1[C@H](O)[C@H]2O)O[C@@H]7CO)O[C@@H]6CO)O[C@@H]5CO)O[C@@H]4CO)O[C@@H]3CO` [α-Cyclodextrin]: the “OC43 Inhibition rate” value is recorded as -0.9%.

For `COc1ccc2ccc(=O)oc2c1` [Herniarin], the “OC43 Inhibition rate” value is given as -2.4%.

As to `CCCCCCC[C@H](O)CC(=O)CCc1ccc(O)c(OC)c1` [8-Gingerol], the “OC43 Inhibition rate” value was found to be 2.5%.

Turning to `CC[C@@]1(O)C(=O)OCc2c1cc1n(c2=O)Cc2cc3c([N+](=O)[O-])cccc3nc2-1` [Rubitecan], the “OC43 Inhibition rate” value amounted to 3%.

On to `O=c1oc2cc(O)ccc2c2cc(O)c(O)cc12` [Urolithin C], for which the “OC43 Inhibition rate” value is 4.7%.

In the case of `CCCCOC(=O)/C=C\C(=O)OCCCC` [Dibutyl maleate], the “OC43 Inhibition rate” value was 0.3%.

Consider `COc1ccc(CC2c3cc(OC)c(OC)cc3CCN2C)cc1OC` (racemic) [DL-Laudanosine], for which the “OC43 Inhibition rate” value stood at 0.1%.

For the molecule `COc1cc2c(c(OC)c1OC)-c1c3cc4c(c1OC[C@@H](C)[C@@](C)(O)C(=O)O[C@@H]2[C@@](C)(O)[C@@H](C)C3)OCO4` [Gomisin D], the “OC43 Inhibition rate” value is reported as 0.8%.

Take `O=c1c(O)c(-c2ccc(O)c(O)c2)oc2cc(O)ccc12` [Fisetin]: the “OC43 Inhibition rate” value is recorded as 0.5%.

Consider `CC1(C)CC[C@]2(C(=O)O)[C@H](O)C[C@]3(C)C(=CC[C@@H]4[C@@]5(C)C[C@H](O)[C@H](O)C(CO)(CO)[C@@H]5CC[C@]43C)[C@@H]2C1` [Platicodigenin], for which the “OC43 Inhibition rate” value is -0.7%.

On to `CCCCCC(C)O` (stereo not drawn) [2-Heptanol], for which the “OC43 Inhibition rate” value is recorded as -0.1%.

For `C=C1C=CC(C(C)C)CC1` (stereo not drawn) [β-Phellandrene], the “OC43 Inhibition rate” value was -0.5%.

For `COc1cc2c3cc1Oc1c(OC)c(OC)cc4c1[C@@H](Cc1ccc(O)c(c1)Oc1ccc(cc1)C[C@@H]3N(C)CC2)N(C)CC4` [Berbamine], the “OC43 Inhibition rate” value is listed as 0%.

Consider `C[C@H]1COC2=C1C(=O)C(=O)c1c2ccc2c1CCCC2(C)C` [Cryptotanshinone], for which the “OC43 Inhibition rate” value is on record as -0.3%.

Turning to `OC1C[C@H]2CC[C@@H](C1)N2` (stereo partly drawn) [Nortropine], the “OC43 Inhibition rate” value is recorded as -2%.

`COc1ccc(-c2coc3cc(O[C@@H]4O[C@H](CO)[C@@H](O)[C@H](O)[C@H]4O)ccc3c2=O)cc1` [Ononin]: the “OC43 Inhibition rate” value is recorded as 4.1%.

As to `COc1cc2c(cc1O)CC[n+]1cc3c4c(ccc3cc1-2)OCO4` [Groenlandicine], the “OC43 Inhibition rate” value is on record as -0.3%.

For `O=C1N[C@@H](Cc2c[nH]c3ccccc23)C(=O)N2CCC[C@@H]12` [Brevianamide F], the “OC43 Inhibition rate” value was -0.4%.

With `CSC[C@H](N)C(=O)O` [S-Methyl-L-cysteine], the “OC43 Inhibition rate” value worked out at 3.9%.

Take `O=C(O)[C@@H](O)Cc1ccccc1` [(S)-2-Hydroxy-3-phenylpropanoic acid]: the “OC43 Inhibition rate” value is given as -0.3%.

As to `N[C@@H](CCSC[C@H](N)C(=O)O)C(=O)O` [L-Cystathionine], the “OC43 Inhibition rate” value is -0.3%.

Consider `COc1cc(O)cc(CCc2cccc(O)c2)c1` [Batatasin III], for which the “OC43 Inhibition rate” value is 2.8%.

Turning to `CCCCCCCC/C=C\CCCCCCCC(=O)O[C@H]1CC[C@@]2(C)C(=CC[C@H]3[C@@H]4CC[C@H]([C@H](C)CCCC(C)C)[C@@]4(C)CC[C@@H]32)C1` [Cholesteryl oleate], the “OC43 Inhibition rate” value is given as -0.3%.

With `CC(C)C[C@H](N)C(=O)N[C@@H](Cc1ccccc1)C(=O)O` [Leucyl-phenylalanine] (H-Leu-Phe-OH), the “OC43 Inhibition rate” value is on record as -7.7%.

On to `C[C@@H]1CC[C@]2(C(=O)O)CC[C@]3(C)C(=CC[C@@H]4[C@@]5(C)CC[C@H](O)[C@@](C)(CO)[C@@H]5CC[C@]43C)[C@@H]2[C@]1(C)O` [Rotundic acid], for which the “OC43 Inhibition rate” value is -1.3%.

Turning to `Cn1c[n+]([C@@H]2O[C@H](CO)[C@@H](O)[C@H]2O)c2nc(N)[nH]c(=O)c21` [7-Methylguanosine], the “OC43 Inhibition rate” value is listed as -2.1%.

With `CC(=O)CCC(=O)O` [Levulinic acid], the “OC43 Inhibition rate” value is listed as -0.2%.

`COc1cc(O)c(CC=C(C)C)c2c1C(=O)CC(c1ccc(O)cc1)O2` (stereo not drawn) [Isoxanthohumol]: the “OC43 Inhibition rate” value turned out to be 30.2%.

Regarding `C[C@@H]1O[C@@H](O[C@H]2[C@H](Oc3cc(O)c4c(=O)cc(-c5ccc(O)cc5)oc4c3)O[C@H](CO[C@@H]3O[C@H](CO)[C@@H](O)[C@H](O)[C@H]3O)[C@@H](O)[C@@H]2O)[C@H](O)[C@H](O)[C@H]1O` [Apigenin-7-O-(2G-rhamnosyl)gentiobioside], the “OC43 Inhibition rate” value is recorded as -0.3%.

Consider `CC(=O)O[C@@H]1CC[C@@]2(C)[C@@H](CC[C@]3(C)[C@@H]2[C@H](O)C=C2[C@@H]4[C@@H](C)[C@H](C)CC[C@]4(C)CC[C@]23C)[C@@]1(C)C(=O)O` [3-O-Acetyl-11-hydroxy-beta-boswellic acid], for which the “OC43 Inhibition rate” value came to 15.2%.

`O=C(O)CCCCCCCCCCCO` [12-Hydroxydodecanoic acid]: the “OC43 Inhibition rate” value is listed as -1%.

`CC(O)CC(=O)O` (stereo not drawn) [3-Hydroxybutyric acid]: the “OC43 Inhibition rate” value is 9.7%.

For `CCCCC/C=C/C(=O)O` [(E)-Oct-2-enoic acid], the “OC43 Inhibition rate” value came to 3.7%.

With `CC(=O)O[C@@H](C[C@@H](C)C1=C2C[C@H](O)[C@H]3[C@@]4(C)CCC(=O)C(C)(C)[C@@H]4CC[C@]3(C)[C@@]2(C)CC1=O)[C@H]1OC1(C)C` [Alisol C 23-acetate], the “OC43 Inhibition rate” value is listed as 4%.

With `O=C1C[C@@](O)(C(=O)O)[C@@H](C(=O)O)O1` [(-)-Hydroxycitric acid lactone], the “OC43 Inhibition rate” value is -0.6%.
